Source: PubChem BioAssay AID1224828 (NIAID, 2016)

Assay: 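Find genes required for NF-kappaB p65 moving into the nucleus after LPS in mouse macrophages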 (primary screen)
Cell system: mouse RAW264.7 G9 macrophage reporter cells (GFP-p65, Tnf promoter-mCherry)
Knock-down reagent: siRNA pool against mouse genes, 100 nM
Timing: 2 days siRNA transfection, then 40 min LPS before fixation
Treatment: LPS (Salmonella minnesota R595) at 10 ng/ml
Read-out: 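Imaged p65 nuclear translocation ratio, normalised to the plate median, converted to robust z-scores and averaged across two replicates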
Scale: p65 translocation robust z-score: higher = more nuclear NF-kappaB p65 after LPS than the plate median; nuclear/cytoplasmic p65 ratio: higher = more nuclear NF-kappaB p65
Active means: 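Active if robust z is above 3.3 (negative regulators) or below -1.56, the Tlr4 control median (positive regulators); activity score 50 or more; control wells not called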
Meaning of the calls: active = hit (p65 shift raised or lowered); inactive = no clear change
The whole screen tested about 17,000 reagents; shown is an unselected part. 762 of them (4.5%) count as active. 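Active calls include both raised and lowered p65 entry, mostly lowered; wells with fewer than 50 cells lack a z-score.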 Raw values vary from plate to plate and are shown uncorrected.

| Gene | p65 translocation robust z-score | nuclear/cytoplasmic p65 ratio, rep 1 | nuclear/cytoplasmic p65 ratio, rep 2 | low cell count flag | outcome |
| --- | --- | --- | --- | --- | --- |
| Wsb2 | 0.64 | 1.4 | 1.32 | enough cells to score | inactive |
| Dagla | 0.05 | 1.79 | 1.47 | enough cells to score | inactive |
| Asb11 | -0.51 | 1.57 | 1.4 | enough cells to score | inactive |
| Zfp184 | – | 1.53 | 1.29 | fewer than 50 cells per well; well left out of scoring | inactive |
| Agr3 | -1.35 | 1.33 | 1.15 | enough cells to score | inactive |
| Ptch1 | 0.91 | 1.66 | 1.5 | enough cells to score | inactive |
| Rasip1 | 1.91 | 1.62 | 1.43 | enough cells to score | inactive |
| Nudc | -1.55 | 1.34 | 1.2 | enough cells to score | inactive |
| Apol9b | -0.28 | 1.55 | 1.59 | enough cells to score | inactive |
| Zfp954 | 1 | 1.51 | 1.58 | enough cells to score | inactive |
| Nkx3-2 | -0.59 | 1.52 | 1.53 | enough cells to score | inactive |
| Clip3 | 1.32 | 1.84 | 1.78 | enough cells to score | inactive |
| Plb1 | 0.28 | 1.66 | 1.85 | enough cells to score | inactive |
| Or5b21 | – | 1.43 | 1.28 | fewer than 50 cells per well; well left out of scoring | inactive |
| Plaat5 | 3.16 | 1.66 | 1.66 | enough cells to score | inactive |
| Trim7 | 2.49 | 1.72 | 1.51 | enough cells to score | inactive |
| Hrnr | -0.35 | 1.42 | 1.47 | enough cells to score | inactive |
| Asprv1 | 0.69 | 1.39 | 1.39 | enough cells to score | inactive |
| Grpel2 | 0.85 | 1.69 | 1.68 | enough cells to score | inactive |
| Acer3 | -1.08 | 1.37 | 1.12 | enough cells to score | inactive |
| Cse1l | 0.7 | 1.76 | 1.45 | enough cells to score | inactive |
| Cacnb1 | 0.84 | 1.7 | 1.94 | enough cells to score | inactive |
| Cblc | -0.32 | 1.36 | 1.34 | enough cells to score | inactive |
| Sap18 | -0.47 | 1.47 | 1.44 | enough cells to score | inactive |

Individual results from above.
For “nuclear/cytoplasmic p65 ratio, rep 2”, Cblc has 1.34
Under “nuclear/cytoplasmic p65 ratio, rep 2”, Sap18 reads 1.44
Asb11, p65 translocation robust z-score → -0.51
